{
  "source": "paper PMC11618438",
  "about": "(ACS Omega, 2024)",
  "key": {"[1]": {"system": "ERα expressed in mouse uterus", "conditions": "read-out: IC50, competition binding, [125I]-estradiol; cited from earlier work"}, "T47D cells": {"system": "T47D cells", "experiment": "Cell survival by MTT assay, T47D", "conditions": "Homo sapiens, read-out: IC50, MTT assay"}},
  "data": [
    {"smiles": "CC/C(=C(\\c1ccccc1)c1ccc(OCCN(C)C)cc1)c1ccccc1", "note": "[tamoxifen]", "values": [
      {"measurement": "IC50", "setting": "[1]", "result": 10, "unit": "nM"},
      {"measurement": "IC50", "setting": "T47D cells", "result": 3.1, "unit": "µM"}
    ]}
  ]
}
